Results are given in words; binding and its absence hold for the method and conditions named. Binding seen in cells or lysates may run through a third protein. A result given as binding can be weak or reduced; the word gives no strength.
Biological target: His-tagged TagA (Vibrio cholerae)
Experiment: pull-down

B1: Hcp (protein, UniProt P72350 1-172)
chain: MPTPCYISIEGQTQGLITAGACTADSIGDSFVEGHEDEMLVQQFDHVVTVPTDPQSGQPSGQRVHKPFKFTVALNKAVPLLYNALSSGEKLKTVELKWYRTSIEGKQENFFTTKLENASIVDIHCEMPHCQDPAKSDFTQNVTVSLSYRKITWDHVNAGTSGSDDWRKPIEA
binding: binds

Source: paper PMC7545191
